From paper PMC11729909
Residue numbers refer to the chain shown, from its start. No constants are given. Whether binding was seen depends on the method and setting. In cells and extracts the contact can be indirect. Some binding calls cover weakened binding; strength is not graded here. Where a sequence is shown, tags or fusion partners need not be part of it.

The chains behind the UniProt entries cited, without tags or fusion partners.
UniProt Q13535: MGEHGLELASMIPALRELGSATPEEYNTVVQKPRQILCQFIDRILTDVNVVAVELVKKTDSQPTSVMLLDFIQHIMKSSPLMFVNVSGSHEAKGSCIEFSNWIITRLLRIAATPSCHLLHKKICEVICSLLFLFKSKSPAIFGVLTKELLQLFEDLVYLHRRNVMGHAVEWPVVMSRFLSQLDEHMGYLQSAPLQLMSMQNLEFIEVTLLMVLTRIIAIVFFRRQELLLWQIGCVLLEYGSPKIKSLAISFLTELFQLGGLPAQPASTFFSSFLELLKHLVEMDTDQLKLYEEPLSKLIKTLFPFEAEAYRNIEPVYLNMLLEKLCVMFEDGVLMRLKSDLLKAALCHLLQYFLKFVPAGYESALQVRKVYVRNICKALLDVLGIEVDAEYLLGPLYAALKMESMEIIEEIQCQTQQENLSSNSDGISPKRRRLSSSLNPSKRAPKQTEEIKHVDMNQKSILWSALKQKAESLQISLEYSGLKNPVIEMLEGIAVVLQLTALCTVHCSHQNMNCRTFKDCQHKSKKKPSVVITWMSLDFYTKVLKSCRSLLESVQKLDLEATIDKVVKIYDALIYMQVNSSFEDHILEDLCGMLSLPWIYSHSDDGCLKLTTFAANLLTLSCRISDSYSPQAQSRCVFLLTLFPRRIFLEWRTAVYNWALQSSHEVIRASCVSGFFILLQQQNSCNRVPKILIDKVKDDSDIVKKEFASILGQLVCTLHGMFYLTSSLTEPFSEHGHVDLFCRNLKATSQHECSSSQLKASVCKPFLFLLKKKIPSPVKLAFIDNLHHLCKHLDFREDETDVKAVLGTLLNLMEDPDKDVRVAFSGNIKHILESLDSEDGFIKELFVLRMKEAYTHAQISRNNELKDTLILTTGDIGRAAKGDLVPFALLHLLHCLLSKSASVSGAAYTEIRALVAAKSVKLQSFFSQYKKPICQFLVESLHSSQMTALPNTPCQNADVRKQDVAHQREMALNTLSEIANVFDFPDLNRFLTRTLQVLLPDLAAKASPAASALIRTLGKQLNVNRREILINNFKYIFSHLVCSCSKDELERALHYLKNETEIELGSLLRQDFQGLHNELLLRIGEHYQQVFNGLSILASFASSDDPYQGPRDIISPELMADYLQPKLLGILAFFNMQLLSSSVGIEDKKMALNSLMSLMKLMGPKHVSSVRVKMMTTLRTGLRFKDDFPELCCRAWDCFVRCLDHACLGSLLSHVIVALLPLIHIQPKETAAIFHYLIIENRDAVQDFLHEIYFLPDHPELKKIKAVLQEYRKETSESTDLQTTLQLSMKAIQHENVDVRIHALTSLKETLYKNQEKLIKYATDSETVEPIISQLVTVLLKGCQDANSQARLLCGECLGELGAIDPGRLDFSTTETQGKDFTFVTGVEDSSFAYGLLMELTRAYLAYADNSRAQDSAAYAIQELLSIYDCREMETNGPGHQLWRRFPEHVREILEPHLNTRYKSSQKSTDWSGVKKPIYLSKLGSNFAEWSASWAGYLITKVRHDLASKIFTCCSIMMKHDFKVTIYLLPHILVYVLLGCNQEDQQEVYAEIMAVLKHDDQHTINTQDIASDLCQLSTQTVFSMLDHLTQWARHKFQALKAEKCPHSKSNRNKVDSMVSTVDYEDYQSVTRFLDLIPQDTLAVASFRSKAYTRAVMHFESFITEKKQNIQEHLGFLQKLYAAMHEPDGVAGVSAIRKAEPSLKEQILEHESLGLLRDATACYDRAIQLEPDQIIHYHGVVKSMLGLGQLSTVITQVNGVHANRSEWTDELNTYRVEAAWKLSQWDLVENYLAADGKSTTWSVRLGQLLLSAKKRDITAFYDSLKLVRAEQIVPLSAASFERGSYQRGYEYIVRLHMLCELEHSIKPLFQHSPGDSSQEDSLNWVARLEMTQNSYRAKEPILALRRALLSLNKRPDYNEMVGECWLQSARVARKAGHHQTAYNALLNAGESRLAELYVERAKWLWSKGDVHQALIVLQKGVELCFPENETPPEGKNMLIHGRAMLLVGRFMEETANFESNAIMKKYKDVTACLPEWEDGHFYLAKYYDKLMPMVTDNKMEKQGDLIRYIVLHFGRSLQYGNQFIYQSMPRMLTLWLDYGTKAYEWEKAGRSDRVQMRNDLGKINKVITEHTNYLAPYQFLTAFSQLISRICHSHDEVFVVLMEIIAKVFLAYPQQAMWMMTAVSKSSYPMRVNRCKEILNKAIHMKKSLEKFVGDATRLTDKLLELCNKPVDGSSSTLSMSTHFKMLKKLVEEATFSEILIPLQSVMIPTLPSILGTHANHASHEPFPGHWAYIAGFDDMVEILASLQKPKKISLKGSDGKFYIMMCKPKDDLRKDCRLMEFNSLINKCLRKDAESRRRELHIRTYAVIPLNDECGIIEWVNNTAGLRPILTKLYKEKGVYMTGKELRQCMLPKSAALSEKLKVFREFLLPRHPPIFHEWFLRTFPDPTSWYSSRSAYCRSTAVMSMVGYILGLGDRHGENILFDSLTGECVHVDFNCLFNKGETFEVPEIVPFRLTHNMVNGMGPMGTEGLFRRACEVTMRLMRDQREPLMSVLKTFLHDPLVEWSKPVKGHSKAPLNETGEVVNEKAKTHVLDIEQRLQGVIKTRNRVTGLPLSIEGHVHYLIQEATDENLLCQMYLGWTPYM
UniProt P15927: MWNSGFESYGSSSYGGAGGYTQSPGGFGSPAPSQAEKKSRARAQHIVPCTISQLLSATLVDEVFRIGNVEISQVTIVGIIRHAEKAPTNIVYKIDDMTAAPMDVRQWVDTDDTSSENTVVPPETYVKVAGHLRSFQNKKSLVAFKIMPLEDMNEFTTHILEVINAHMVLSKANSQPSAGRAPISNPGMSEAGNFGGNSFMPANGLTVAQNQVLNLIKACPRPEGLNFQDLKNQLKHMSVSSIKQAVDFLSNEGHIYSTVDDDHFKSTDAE
UniProt P27694: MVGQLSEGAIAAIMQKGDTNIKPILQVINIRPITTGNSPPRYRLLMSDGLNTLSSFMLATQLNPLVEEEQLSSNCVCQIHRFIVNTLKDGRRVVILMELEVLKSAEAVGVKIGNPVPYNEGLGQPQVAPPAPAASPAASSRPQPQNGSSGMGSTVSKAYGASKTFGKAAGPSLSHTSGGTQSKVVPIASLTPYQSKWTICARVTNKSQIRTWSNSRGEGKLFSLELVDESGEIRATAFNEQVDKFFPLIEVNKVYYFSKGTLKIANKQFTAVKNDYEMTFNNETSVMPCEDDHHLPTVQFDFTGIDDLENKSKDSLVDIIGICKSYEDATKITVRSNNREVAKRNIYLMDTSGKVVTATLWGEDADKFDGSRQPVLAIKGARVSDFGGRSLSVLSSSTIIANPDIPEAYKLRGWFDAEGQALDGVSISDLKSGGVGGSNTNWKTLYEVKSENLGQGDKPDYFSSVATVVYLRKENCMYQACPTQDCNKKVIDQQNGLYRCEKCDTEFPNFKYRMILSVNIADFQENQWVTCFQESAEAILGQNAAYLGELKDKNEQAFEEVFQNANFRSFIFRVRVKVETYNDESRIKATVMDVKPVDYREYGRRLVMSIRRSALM

Tests used:
[1] = molecular target: T1, FLAG-tagged FOXP1 (wild type, full length) (human) (UniProt Q9H334); experiment: co-IP; H1975 cells transfected with FLAG-tagged FOXP1, preincubated with Thiamet-G or not, immunoprecipitation and immunoblot
T1 sequence: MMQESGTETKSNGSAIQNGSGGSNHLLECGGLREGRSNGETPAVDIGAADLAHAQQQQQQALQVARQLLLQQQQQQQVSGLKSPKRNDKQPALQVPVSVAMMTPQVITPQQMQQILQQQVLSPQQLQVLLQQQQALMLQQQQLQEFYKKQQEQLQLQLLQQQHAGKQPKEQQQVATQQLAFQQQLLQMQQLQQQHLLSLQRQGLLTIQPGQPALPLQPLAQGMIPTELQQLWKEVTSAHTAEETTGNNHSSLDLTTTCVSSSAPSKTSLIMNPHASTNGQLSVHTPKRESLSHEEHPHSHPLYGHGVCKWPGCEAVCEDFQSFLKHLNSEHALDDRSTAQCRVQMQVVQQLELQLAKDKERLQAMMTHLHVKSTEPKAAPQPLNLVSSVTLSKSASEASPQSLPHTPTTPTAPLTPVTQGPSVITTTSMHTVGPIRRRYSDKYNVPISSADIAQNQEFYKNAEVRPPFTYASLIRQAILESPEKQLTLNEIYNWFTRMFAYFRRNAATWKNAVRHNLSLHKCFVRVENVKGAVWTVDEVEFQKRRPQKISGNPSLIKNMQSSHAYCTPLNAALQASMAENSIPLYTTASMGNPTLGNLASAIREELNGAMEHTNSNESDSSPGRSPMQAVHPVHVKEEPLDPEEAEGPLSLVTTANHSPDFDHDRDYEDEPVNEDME

[2] = molecular target: T1, FLAG-tagged FOXP1 (wild type, full length) (human); experiment: co-IP; HEK293T transfected with FLAG-FOXP1, untreated or 2 mM HU 1 h, chromatin fractionation; soluble and chromatin fractions (diluted ten times with NETN) precipitated with Anti-FLAG Affinity Gel
[3] = molecular target: T2, GST-tagged FOXP1 (wild type, full length) (human) (UniProt Q9H334); experiment: pull-down; GST pull-down: purified GST-tagged FOXP1 (unmodified, O-GlcNAcylated, or phosphorylated by CHK1 in vitro) incubated with HEK293T cell lysate, glutathione beads, immunoblot; only the target purified
T2 sequence: T1 sequence

[4] = molecular target: T3, GST-tagged FOXP1 modified with O-GlcNAc (human) (UniProt Q9H334); experiment: as above
T3 sequence (chain, O-GlcNAc (sites not stated)): T1 sequence

[5] = molecular target: T4, GST-tagged FOXP1 phosphorylated by CHK1 (human) (UniProt Q9H334); experiment: as above
T4 sequence (chain, phosphoserine at 396): T1 sequence

[6] = molecular target: T1, FLAG-tagged FOXP1 (wild type, full length) (human); experiment: co-IP; HEK293T transfected with the indicated plasmids, lysed in NETN buffer, Anti-FLAG Affinity Gel 4 h at 4 °C, immunoblot; in some panels 2 mM HU, Thiamet-G, OGT siRNA, ATR inhibitors (VE-822, NU6027) or CHK1 inhibitors (Rabusertib, UCN-01)
[7] = molecular target: T5, FLAG-tagged FOXP1 R465G (human) (UniProt Q9H334); experiment: as above
T5 sequence: T1 sequence with R465G

[8] = molecular target: T6, FLAG-tagged FOXP1 R465T (human) (UniProt Q9H334); experiment: as above
T6 sequence: T1 sequence with R465T

[9] = molecular target: T7, FLAG-tagged FOXP1 R514C (human) (UniProt Q9H334); experiment: as above
T7 sequence: T1 sequence with R514C

[10] = molecular target: T8, FLAG-tagged FOXP1 R514H (human) (UniProt Q9H334); experiment: as above
T8 sequence: T1 sequence with R514H

[11] = molecular target: T9, FLAG-tagged FOXP1 S396D (human) (UniProt Q9H334); experiment: as above
T9 sequence: T1 sequence with S396D

Measured: binding

ATR (endogenous) (from UniProt Q13535 1-2644)
binds: all assays above

RPA32 (endogenous) (from UniProt P15927 1-270)
binds: [6]

RPA70 (endogenous) (from UniProt P27694 1-616)
binds: [6]
